Our source for the binding values is US20100323974A1.

Chains of the proteins cited; added tags and fusions are not shown. Lines headed by an entry give the natural chain unless they say otherwise; changes in a name come on top.
UniProt O75367: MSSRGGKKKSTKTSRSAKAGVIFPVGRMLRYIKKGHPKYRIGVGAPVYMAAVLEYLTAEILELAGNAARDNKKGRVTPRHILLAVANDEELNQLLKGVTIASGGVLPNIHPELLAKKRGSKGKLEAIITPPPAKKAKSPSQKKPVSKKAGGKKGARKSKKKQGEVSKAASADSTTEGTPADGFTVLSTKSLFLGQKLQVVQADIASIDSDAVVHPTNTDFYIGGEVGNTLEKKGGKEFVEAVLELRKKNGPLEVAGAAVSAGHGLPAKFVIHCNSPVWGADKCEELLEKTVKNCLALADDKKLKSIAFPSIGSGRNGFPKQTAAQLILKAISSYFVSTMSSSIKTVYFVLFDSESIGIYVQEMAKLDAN
UniProt P09874: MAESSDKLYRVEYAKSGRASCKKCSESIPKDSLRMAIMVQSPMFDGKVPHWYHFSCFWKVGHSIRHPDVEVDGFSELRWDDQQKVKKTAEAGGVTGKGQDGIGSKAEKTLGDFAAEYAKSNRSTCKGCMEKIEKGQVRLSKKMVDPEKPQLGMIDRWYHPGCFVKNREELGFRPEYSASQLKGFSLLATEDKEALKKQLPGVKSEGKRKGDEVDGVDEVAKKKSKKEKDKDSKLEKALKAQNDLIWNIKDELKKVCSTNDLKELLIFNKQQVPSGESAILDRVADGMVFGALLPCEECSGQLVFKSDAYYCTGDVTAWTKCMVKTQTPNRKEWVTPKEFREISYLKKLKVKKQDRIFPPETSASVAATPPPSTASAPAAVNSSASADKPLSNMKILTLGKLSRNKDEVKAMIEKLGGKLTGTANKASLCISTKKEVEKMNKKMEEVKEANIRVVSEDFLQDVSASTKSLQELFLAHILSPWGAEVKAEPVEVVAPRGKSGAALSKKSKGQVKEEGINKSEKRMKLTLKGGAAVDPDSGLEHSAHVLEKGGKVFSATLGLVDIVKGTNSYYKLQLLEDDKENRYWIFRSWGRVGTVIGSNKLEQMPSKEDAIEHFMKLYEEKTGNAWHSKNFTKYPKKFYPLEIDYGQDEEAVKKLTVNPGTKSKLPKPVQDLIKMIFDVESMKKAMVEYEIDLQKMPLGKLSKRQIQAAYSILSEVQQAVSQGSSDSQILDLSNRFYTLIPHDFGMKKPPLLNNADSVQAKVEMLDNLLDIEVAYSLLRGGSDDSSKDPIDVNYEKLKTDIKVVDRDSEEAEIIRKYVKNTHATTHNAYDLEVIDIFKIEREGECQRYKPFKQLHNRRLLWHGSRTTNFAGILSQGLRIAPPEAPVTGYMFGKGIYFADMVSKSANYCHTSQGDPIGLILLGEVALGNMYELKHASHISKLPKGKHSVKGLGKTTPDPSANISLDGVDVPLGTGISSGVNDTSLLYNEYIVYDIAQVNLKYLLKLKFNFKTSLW

Experiment [1] deals with e-mH2A1.1 nucleosome complex (macroH2A1.1 histone with N-terminal double HA and double Flag epitope tags, in mononucleosomes purified from HeLa cells) (human) (UniProt O75367). Nature of the experiment: 15-35% glycerol gradient of the purified complex, fractions on 4-12% SDS PAGE.
Experiment [2] deals with e-mH2A1.1 nucleosomes with a triple tagged version of mH2A1.1 (FLAG-HA-HIS) (human) (UniProt O75367). Nature of the experiment: FLAG-HA purified mononucleosomes on a hydroxyl apatite column, 0.65 M NaCl wash, 2M NaCl elution, SDS-PAGE.
The target of experiment [3] is e-mH2A1.1 nucleosome complex (macroH2A1.1 histone with N-terminal double HA and double Flag epitope tags, in mononucleosomes purified from HeLa cells) (human) (UniProt O75367). Nature of the experiment: silver stained gel of the purified complex and glycerol gradient fractions.
The target is the same in experiment [4]. Put plainly: tagged nucleosome complexes isolated at 150 mM NaCl, silver stained SDS-PAGE, PARP-1 relative to histone H1.
Experiment [5] has as its target Human recombinant PARP-1 (ALEXIS) (Human) (UniProt P09874). Nature of the experiment: GST pull-down, PBS with 100 mM KCl and 0.02% NP40, anti-PARP-1 immunoblot.

No constants are given. Whether binding was seen depends on the method and setting. For part of these data: In cells and extracts the contact can be indirect. Some binding calls cover weakened binding; strength is not graded here.

Take “poly(ADP-ribose) polymerase I (PARP-1), native, co-purified from HeLa cells (from UniProt P09874 2-1014)”: the binding result in experiment [1], in experiment [2], in experiment [3] and in experiment [4] was “binds” each time.

On to “GST-NHR (GST fused to the non histone region of macroH2A1.1) (from UniProt O75367 121-369)”, for which the binding result in experiment [5] was “binds”.

With “GST-macroH2A1.1 (from UniProt O75367 1-369)”, the binding result in experiment [5] is “binds”.
